Source: PubChem BioAssay AID328 (DTP/NCI, 2004)
The list does not hold the whole screen: it is rich in T/C values a quarter to a half above the control, in often repeated tests (any T/C) and in doses without a T/C. Other doses and runs of a compound stand elsewhere. T/C gives the treated animals as a percentage of the vehicle group. Some doses have a count of surviving animals in place of a T/C: the source files T/C as zero there, which appears to mark a toxic dose or a test without result, not a measured value. Some doses without a T/C left all or most animals alive at the check, yet need not have been tolerated: the source hardly ever lists a survival T/C far under the control, and the zero likely stands for such cases as well. Survivors were counted at the toxicity check, usually on the fifth day, unless a day is given; later deaths do not show. Schedules are NCI's codes, read here as Q, the interval in days (D) or hours (H), X, the number of doses. Some structures stand for samples that the source files as different forms (salt, stereo form or complex); doses refer to the form tested. Some entries hold several experiments; their values stand side by side, smallest first. Where survival is the endpoint, this PubChem deposit counts one and a half times the control or more as active, and values a quarter to a half above the control carry no call in these data; other NCI protocols may use other cut-offs. Some schedules carry Z or #; the key to these is not given. Some T/C values are followed by the survivors on the day toxicity was checked, most often the fifth; without a count, all were alive then. Counts like (3×) give the number of equal values in this list.

System: BDF1 mice, P388 leukemia ip, median survival T/C
Assay: NCI In Vivo Anticancer Drug Screen. Data for tumor model P388 Leukemia (intraperitoneal) in B6D2F1 (BDF1) mice
Settings: T/C endpoint: median survival time, higher T/C = longer survival
How it was run: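 T/C = treated-group survival ÷ vehicle-control survival; tumour transplanted into mice before dosing.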

[1] = dose: 0.06 mg/kg/injection, schedule: Q01DX010 (ip), vehicle: water
[2] = dose: 0.5 mg/kg/injection, schedule: Q01DX010 (ip), vehicle: water
[3] = dose: 1.0 mg/kg/injection, schedule: Q01DX001 (ip), vehicle: water

CO[C@H](C(=O)[C@@H](O)[C@@H](C)O)[C@@H]1Cc2cc3cc(OC4CC(OC5CC(O)C(O)C(C)O5)C(O)C(C)O4)c(C)c(O)c3c(O)c2C(=O)[C@H]1OC1CC(OC2CC(OC3CC(C)(O)C(O)C(C)O3)C(O)C(C)O2)C(O)C(C)O1 (some centres not stated)
T/C [1]: 100 (4×), 109, 110 (2×), 118 % of control
survivor count [1]: 5 of 6
T/C (dose: 0.1 mg/kg/injection, schedule: Q01DX010 (ip), vehicle: water): 107, 109 (2×), 114, 115, 120 % of control [5 of 6 alive]
T/C (dose: 0.12 mg/kg/injection, schedule: Q01DX010 (ip), vehicle: saline): 138 and 142 % of control
T/C (dose: 0.13 mg/kg/injection, schedule: Q01DX009 (ip), vehicle: saline): 125 % of control
T/C (dose: 0.13 mg/kg/injection, schedule: Q01DX010 (ip), vehicle: saline, evaluated on day 5): 133 % of control
T/C (dose: 0.13 mg/kg/injection, schedule: Q01DX010 (ip), vehicle: saline, evaluated on day 60): 139 % of control
T/C (dose: 0.13 mg/kg/injection, schedule: Q01DX010 (ip), vehicle: saline, run until all animals had died): 109, 118, 122, 127 % of control
T/C (dose: 0.13 mg/kg/injection, schedule: Q01DX010 (ip), vehicle: water): 95, 104, 109 (2×), 110 (2×), 118 (2×), 120 % of control
T/C (dose: 0.19 mg/kg/injection, schedule: Q01DX010 (ip), vehicle: saline): 135 % of control
T/C (dose: 0.2 mg/kg/injection, schedule: Q01DX009 (ip), vehicle: water): 130 % of control [9 of 10 alive]
T/C (dose: 0.2 mg/kg/injection, schedule: Q01DX010 (ip), vehicle: water): 107, 109 (4×), 113, 115, 117, 118 (2×), 125, 127 % of control (2×)
T/C (dose: 0.2 mg/kg/injection, schedule: Q01DX015 (ip), vehicle: water): 130 % of control
T/C (dose: 0.25 mg/kg/injection, schedule: Q01DX010 (ip), vehicle: saline, evaluated on day 5): 127 % of control
T/C (dose: 0.25 mg/kg/injection, schedule: Q01DX010 (ip), vehicle: saline, evaluated on day 60): 126, 142, 157 % of control
T/C (dose: 0.25 mg/kg/injection, schedule: Q01DX010 (ip), vehicle: saline, run until all animals had died): 109, 113, 122, 127, 127 [6 of 7 alive], 131, 133, 136 % of control
T/C (dose: 0.25 mg/kg/injection, schedule: Q01DX010 (ip), vehicle: water): 104 [5 of 6 alive], 109, 110 (2×), 112 [4 of 6 alive], 113, 118, 118 [5 of 6 alive], 120, 122, 125, 127 (3×), 130 (2×), 136 % of control
T/C (dose: 0.25 mg/kg/injection, schedule: Q#A X005 (ip), vehicle: saline): 127 % of control
T/C (dose: 0.3 mg/kg/injection, schedule: Q01DX010 (ip), vehicle: water): 109 [5 of 6 alive], 113, 115 [5 of 6 alive], 118 (2×), 118 [5 of 6 alive], 121, 127 (3×), 130, 132, 136 % of control
T/C (dose: 0.3 mg/kg/injection, schedule: Q01DX015 (ip), vehicle: water): 125 % of control [5 of 6 alive]
T/C (dose: 0.32 mg/kg/injection, schedule: Q01DX005 (ip), vehicle: water): 148 % of control
T/C (dose: 0.35 mg/kg/injection, schedule: Q01DX009 (ip), vehicle: water): 140 % of control
T/C (dose: 0.38 mg/kg/injection, schedule: Q01DX010 (ip), vehicle: saline): 135 % of control
T/C (dose: 0.4 mg/kg/injection, schedule: Q01DX010 (ip), vehicle: water): 103, 113 (2×), 118 [5 of 6 alive], 122 (2×), 127 (2×), 132, 136, 139, 140 [5 of 6 alive], 163 % of control
T/C (dose: 0.4 mg/kg/injection, schedule: Q01DX015 (ip), vehicle: water): 135 % of control
T/C (dose: 0.5 mg/kg/injection, schedule: Q01DX001 (ip), vehicle: water): 125 % of control
T/C (dose: 0.5 mg/kg/injection, schedule: Q01DX009 (ip), vehicle: clinical formulation): 140 % of control
survivor count (dose: 0.5 mg/kg/injection, schedule: Q01DX009 (ip), vehicle: water): 6 of 10
T/C (dose: 0.5 mg/kg/injection, schedule: Q01DX010 (ip), vehicle: saline, evaluated on day 5): 146 % of control
T/C (dose: 0.5 mg/kg/injection, schedule: Q01DX010 (ip), vehicle: saline, evaluated on day 60): 147, 157, 180 % of control
T/C (dose: 0.5 mg/kg/injection, schedule: Q01DX010 (ip), vehicle: saline, run until all animals had died): 131, 136, 140, 154 (4×), 168 % of control
T/C [2]: 90 [5 of 6 alive], 95, 95 [5 of 6 alive], 100, 104, 113 (2×), 120, 122, 122 [5 of 6 alive] (2×), 126 [4 of 6 alive], 127 [4 of 6 alive], 130 [5 of 6 alive], 136, 140 (2×), 140 [5 of 6 alive], 143, 150 % of control
survivor count [2]: 3 of 6, 4 of 6, 5 of 6, 6 of 6
survivor count (dose: 0.5 mg/kg/injection, schedule: Q01DX015 (ip), vehicle: water): 4 of 6
T/C (dose: 0.5 mg/kg/injection, schedule: Q#A X005 (ip), vehicle: saline): 127 % of control
survivor count (dose: 0.65 mg/kg/injection, schedule: Q01DX009 (ip), vehicle: water): 4 of 10
T/C (dose: 0.75 mg/kg/injection, schedule: Q01DX010 (ip), vehicle: saline): 137 % of control
survivor count (dose: 0.75 mg/kg/injection, schedule: Q01DX010 (ip), vehicle: water): 4 of 6 and 5 of 6
survivor count (dose: 0.8 mg/kg/injection, schedule: Q01DX009 (ip), vehicle: water): 2 of 10 and 4 of 10
survivor count (dose: 0.9 mg/kg/injection, schedule: Q01DX005 (ip), vehicle: water): 7 of 8
T/C [3]: 125 % of control [3 of 4 alive]
survivor count [3]: 4 of 4
survivor count (dose: 1.0 mg/kg/injection, schedule: Q01DX005 (ip), vehicle: saline): 7 of 10
survivor count (dose: 1.0 mg/kg/injection, schedule: Q01DX009 (ip), vehicle: saline): 9 of 10
T/C (dose: 1.0 mg/kg/injection, schedule: Q01DX010 (ip), vehicle: saline, evaluated on day 5): 180 % of control
T/C (dose: 1.0 mg/kg/injection, schedule: Q01DX010 (ip), vehicle: saline, evaluated on day 60): 176, 182, 195 % of control
survivor count (dose: 1.0 mg/kg/injection, schedule: Q01DX010 (ip), vehicle: saline): 5 of 6 and 7 of 7
